The assay concerns BDF1 mice, B16 melanoma ip, median survival T/C. Description: NCI In Vivo Anticancer Drug Screen. Data for tumor model B16 Melanoma (intraperitoneal) in B6D2F1 (BDF1) mice. Conditions: T/C endpoint: median survival time, higher T/C = longer survival. The gist of the method:
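Antitumor activity is assessed in mice bearing a transplanted tumor, with survival or tumor size compared against vehicle-dosed controls and expressed as T/C.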

Where [1] appears, read: dose: 12.5 mg/kg/injection, schedule: Q01DX009 (ip), vehicle: Klucel (hydroxypropylcellulose) (HPC).
[2] abbreviates: dose: 25.0 mg/kg/injection, schedule: Q01DX009 (ip), vehicle: Klucel (hydroxypropylcellulose) (HPC).
[3] abbreviates: dose: 50.0 mg/kg/injection, schedule: Q01DX009 (ip), vehicle: Klucel (hydroxypropylcellulose) (HPC).
The mark [4] stands for this setting: dose: 100.0 mg/kg/injection, schedule: Q01DX009 (ip), vehicle: Klucel (hydroxypropylcellulose) (HPC).
Setting [5] is: dose: 200.0 mg/kg/injection, schedule: Q01DX009 (ip), vehicle: Klucel (hydroxypropylcellulose) (HPC).

Each structure is given as a SMILES string. The list is a part of this screen's results and no random one: its compounds were picked by chemical class. Not every dose and run of a compound is shown. T/C gives the treated animals as a percentage of the vehicle group. Some entries give survivors of the animals treated and no T/C: the source files T/C as zero there, which appears to mark a toxic dose or a test without result, not a measured value. Some doses without a T/C left all or most animals alive at the check, yet need not have been tolerated: survival well below the control is almost never listed, so the zero probably covers shortened survival too. Survivors were counted at the toxicity check, usually on the fifth day, unless a day is given; later deaths do not show. Schedules are NCI's codes, taken here to give the interval after Q, in days (D) or hours (H), and the number of doses after X. For survival time, this PubChem deposit counts one and a half times the control or more as active, and values a quarter to a half above the control carry no call in these data; other NCI protocols may use other cut-offs. Some entries hold several experiments; the results are listed from low to high. Some T/C values are marked as having no survivor count here; that says nothing about deaths at the dose.

`COc1cc(CN(CCCl)CCBr)cc(OC)c1`: the T/C (dose: 0.75 mg/kg/injection, schedule: Q01DX009 (ip), vehicle: saline with Tween-80) is 103 % of control [survivor count not shown]; the T/C (dose: 0.78 mg/kg/injection, schedule: Q01DX009 (ip), vehicle: carboxymethylcellulose (CMC)) was 109 % of control [survivor count not shown]; the T/C (dose: 1.5 mg/kg/injection, schedule: Q01DX009 (ip), vehicle: Klucel (hydroxypropylcellulose) (HPC)) was 111 % of control [survivor count not shown]; the T/C (dose: 1.5 mg/kg/injection, schedule: Q01DX009 (ip), vehicle: saline with Tween-80) was 111 % of control [survivor count not shown]; the T/C (dose: 1.56 mg/kg/injection, schedule: Q01DX009 (ip), vehicle: carboxymethylcellulose (CMC)) was 124 % of control [survivor count not shown]; the T/C (dose: 2.7 mg/kg/injection, schedule: Q01DX009 (ip), vehicle: saline) is 116 % of control [survivor count not shown]. For the same compound, the T/C by setting is: (dose: 3.0 mg/kg/injection, schedule: Q01DX009 (ip), vehicle: Klucel (hydroxypropylcellulose) (HPC)) 117 % of control [survivor count not shown]; (dose: 3.0 mg/kg/injection, schedule: Q01DX009 (ip), vehicle: saline with Tween-80) 118 % of control [survivor count not shown]; (dose: 3.12 mg/kg/injection, schedule: Q01DX009 (ip), vehicle: Klucel (hydroxypropylcellulose) (HPC)) 146 % of control [survivor count not shown]; (dose: 3.12 mg/kg/injection, schedule: Q01DX009 (ip), vehicle: carboxymethylcellulose (CMC)) 125 % of control [survivor count not shown]; (dose: 4.0 mg/kg/injection, schedule: Q01DX009 (ip), vehicle: saline) 127 % of control [survivor count not shown]; (dose: 6.0 mg/kg/injection, schedule: Q01DX009 (ip), vehicle: Klucel (hydroxypropylcellulose) (HPC)) 116 % of control [survivor count not shown]. The T/C (dose: 6.0 mg/kg/injection, schedule: Q01DX009 (ip), vehicle: saline with Tween-80) was 138 % of control [survivor count not shown]; the T/C (dose: 6.0 mg/kg/injection, schedule: Q01DX009 (ip), vehicle: saline) is 133 % of control [survivor count not shown]; the T/C (dose: 9.0 mg/kg/injection, schedule: Q01DX009 (ip), vehicle: saline) was 142 % of control [survivor count not shown]; the T/C (dose: 12.0 mg/kg/injection, schedule: Q01DX009 (ip), vehicle: saline with Tween-80) is 121 % of control [survivor count not shown].

As for `ClCCN(CCCl)c1ccc(Oc2ccccc2)cc1`, the T/C is 98 % of control [survivor count not shown] under setting [1]; 102 % of control [survivor count not shown] under setting [2]; 98 % of control [survivor count not shown] under setting [3]; 114 % of control [survivor count not shown] under setting [4]; 139 % of control [survivor count not shown] under setting [5]; 108 % of control [survivor count not shown] (dose: 400.0 mg/kg/injection, schedule: Q01DX009 (ip), vehicle: Klucel (hydroxypropylcellulose) (HPC)).

For the compound `N#CC(C#N)=Cc1ccc(N(CCCl)CCCl)cc1`, the T/C is, setting by setting: under setting [1], 93 % of control [survivor count not shown]; under setting [2], 94 % of control [survivor count not shown]; under setting [3], 96 % of control [survivor count not shown]; under setting [4], 94 % of control [survivor count not shown]; under setting [5], 108 % of control [survivor count not shown].

On to `O=C(O)CCCCc1ccc(N(CCCl)CCCl)cc1`, for which the T/C reads like this: (dose: 3.13 mg/kg/injection, schedule: Q01DX009 (ip), vehicle: saline with Tween-80) 110 % of control [survivor count not shown]; (dose: 6.25 mg/kg/injection, schedule: Q01DX009 (ip), vehicle: saline with Tween-80) 100 % of control [survivor count not shown]; (dose: 6.25 mg/kg/injection, schedule: Q04DX003 (ip), vehicle: saline with Tween-80) 113 % of control [survivor count not shown]; (dose: 12.5 mg/kg/injection, schedule: Q01DX009 (ip), vehicle: saline with Tween-80) 110 [survivor count not shown] and 115 % of control [survivor count not shown]; (dose: 12.5 mg/kg/injection, schedule: Q04DX003 (ip), vehicle: saline with Tween-80) 105 % of control [survivor count not shown]; (dose: 25.0 mg/kg/injection, schedule: Q04DX003 (ip), vehicle: saline with Tween-80) 97 [survivor count not shown] and 121 % of control [survivor count not shown].

In the case of `COc1ccc(N(CCCl)CCCl)cc1`, the T/C was 108 % of control [survivor count not shown] (dose: 1.56 mg/kg/injection, schedule: Q01DX009 (ip), vehicle: Klucel (hydroxypropylcellulose) (HPC)); 110 % of control (dose: 3.13 mg/kg/injection, schedule: Q01DX009 (ip), vehicle: Klucel (hydroxypropylcellulose) (HPC), evaluated on day 60); 101 % of control [survivor count not shown] (dose: 3.13 mg/kg/injection, schedule: Q01DX009 (ip), vehicle: Klucel (hydroxypropylcellulose) (HPC), evaluation day not shown); 129 and 142 % of control (dose: 6.25 mg/kg/injection, schedule: Q01DX009 (ip), vehicle: Klucel (hydroxypropylcellulose) (HPC), evaluated on day 60); 110 % of control [survivor count not shown] (dose: 6.25 mg/kg/injection, schedule: Q01DX009 (ip), vehicle: Klucel (hydroxypropylcellulose) (HPC), evaluation day not shown); 140 and 150 % of control (dose: 12.5 mg/kg/injection, schedule: Q01DX009 (ip), vehicle: Klucel (hydroxypropylcellulose) (HPC), evaluated on day 60). Also, the T/C was 131 % of control [survivor count not shown] (dose: 12.5 mg/kg/injection, schedule: Q01DX009 (ip), vehicle: Klucel (hydroxypropylcellulose) (HPC), evaluation day not shown); 99 and 183 % of control (dose: 25.0 mg/kg/injection, schedule: Q01DX009 (ip), vehicle: Klucel (hydroxypropylcellulose) (HPC), evaluated on day 60); 163 % of control [survivor count not shown] (dose: 25.0 mg/kg/injection, schedule: Q01DX009 (ip), vehicle: Klucel (hydroxypropylcellulose) (HPC), evaluation day not shown). Further, under setting [3], the survivor count is 10 of 10.

For the compound `CCCCN(CCCl)CCCC`, the T/C is 97 % of control [survivor count not shown] (dose: 12.5 mg/kg/injection, schedule: Q01DX009 (ip), vehicle: saline); 110 % of control [survivor count not shown] (dose: 12.5 mg/kg/injection, schedule: Q04DX003 (ip), vehicle: saline); 105 % of control [survivor count not shown] (dose: 25.0 mg/kg/injection, schedule: Q04DX003 (ip), vehicle: saline); 112 % of control [survivor count not shown] (dose: 50.0 mg/kg/injection, schedule: Q04DX003 (ip), vehicle: saline).
